Data on 17 substances can be found in US20190374627A1, “TARGET PEPTIDES FOR CANCER THERAPY AND DIAGNOSTICS” (priority 2016, published 2019).

Entries after “also recorded” stand apart in the source; their conditions may differ.

In one data set the test system is HCC tumor tissue, adjacent liver tissue, HepG2 cells. The data set is described as follows: Identification of MHC class I-bound phosphopeptides by W6/32 immunoprecipitation, IMAC and HPLC-ESI-MS/MS. On the set-up: species or system human. The following applies: other malignancies on which the MHC-I-pP was also identified.
For “yLQSRYYRA: HIPK3 phosphopeptide, HLA-A*0201 (YLQSRYYRA; phosphotyrosine; (1)...(1) The amino acid at this position is optionally phosphorylated; listed as Homo sapiens)”, the “Found on other cancers” value is on record as “Ovarian Ca”.

The data set is the same for the next values; noted with them: presentation of HCC-associated HLA-A*0201-restricted MHC-I-pP per cell.
Turning to “yLQSRYYRA: HIPK3 phosphopeptide, HLA-A*0201 (YLQSRYYRA; phosphotyrosine; (1)...(1) The amino acid at this position is optionally phosphorylated; listed as Homo sapiens)”, the Copies/cell is 0.2 - 1.9 Copies/cell.

The data set is the same for the next values; noted with them: sample (HCC tumor T, adjacent liver N, HepG2) on which the phosphopeptide was identified.
Consider “yLQSRYYRA: HIPK3 phosphopeptide, HLA-A*0201 (YLQSRYYRA; phosphotyrosine; (1)...(1) The amino acid at this position is optionally phosphorylated; listed as Homo sapiens)”, for which the Found on result is on record as “LL3907T; also recorded: LL4857T; also recorded: LL981T”.

In another data set the test system is ovarian cancer. The data set is described as follows: Presence of the phosphopeptide in previously analyzed ovarian cancer samples. Further details: key: The presence of phosphopeptides in previously analyzed samples including leukemia, colorectal cancer, melanoma, ovarian cancer, breast cancer, and esophageal cancer is indicated by ✓.
Details: not given
“1 (AIMRSPQMV; (5)...(5) The amino acid at this position is optionally phosphorylated; listed as Homo sapiens) [compound 1]”: the Ovarian result was “✓”.
The same measure, in the same setting: the value for “3 (ALGNTPPFL; (5)...(5) The amino acid at this position is optionally phosphorylated; listed as Homo sapiens) [compound 3]” was “✓”; that for “4 (ALMGSPQLV; (5)...(5) The amino acid at this position is optionally phosphorylated; listed as Homo sapiens) [compound 4]” was “✓”; that for “5 (ALMGSPQLVAA; (5)...(5) The amino acid at this position is optionally phosphorylated; listed as Homo sapiens) [compound 5]” was “✓”.
The same measure, in the same setting: to “8 (ELFSSPPAV; (5)...(5) The amino acid at this position is optionally phosphorylated; listed as Homo sapiens) [compound 8]” belongs “✓”.
For the substance “12 (GLISPVWGA; (4)...(4) The amino acid at this position is optionally phosphorylated; listed as Homo sapiens) [compound 12]”, the Ovarian result is reported as “✓”.
As for “13 (GLLDSPTSI; (5)...(5) The amino acid at this position is optionally phosphorylated; listed as Homo sapiens) [compound 13]”, the Ovarian result was “✓”.
In the case of “17 (KIASEIAQL; (4)...(4) The amino acid at this position is optionally phosphorylated; listed as Homo sapiens) [compound 17]”, the Ovarian result was “✓”.
Regarding “18 (KIGSIIFQV; (4)...(4) The amino acid at this position is optionally phosphorylated; listed as Homo sapiens) [compound 18]”, the Ovarian entry is “✓”.
For “20 (KLDSPRVTV; (4)...(4) The amino acid at this position is optionally phosphorylated; listed as Homo sapiens) [compound 20]”, the Ovarian entry was “✓”.
For “24 (KLMSDVEDV; (4)...(4) The amino acid at this position is optionally phosphorylated; listed as Homo sapiens) [compound 24]”, the Ovarian result is “✓”.
On to “26 (KQDSLVINL; (4)...(4) The amino acid at this position is optionally phosphorylated; listed as Homo sapiens) [compound 26]”, for which the Ovarian result is given as “✓”.
As for “28 (KVASLLHQV; (4)...(4) The amino acid at this position is optionally phosphorylated; listed as Homo sapiens) [compound 28]”, the Ovarian entry was “✓”.
As to “30 (RASSLSITV; (4)...(4) The amino acid at this position is optionally phosphorylated; listed as Homo sapiens) [compound 30]”, the Ovarian entry is on record as “✓”.
Regarding “31 (RLASASRAL; (4)...(4) The amino acid at this position is optionally phosphorylated; listed as Homo sapiens) [compound 31]”, the Ovarian result is “✓”.
Take “32 (RLASLQSEV; (4)...(4) The amino acid at this position is optionally phosphorylated; listed as Homo sapiens) [compound 32]”: the Ovarian result is reported as “✓”.
